The list shows a part of the results.
Assays:
Test in all cases: log2 fold change, soluble protein after heating vs DMSO (PISA); higher = thermal stabilisation; K562 cells, 10 uM, 30 min; active = over 0.2 and 3.5 SD of the protein, either way, in both replicates (recomputed)
Tubastatin A = compound: CN1CCc2c(c3ccccc3n2Cc2ccc(C(=O)NO)cc2)C1 [Tubastatin A]
In short: (§1)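 Quantification of soluble protein used TMTpro 16plex LC-MS/MS, with channel sums equalised. Samples were the supernatant after 21,000xg for 90 min of pooled aliquots from K562 cells (2×10^6 cells/mL) treated with 10 μM compound for 30 min, heated for 3 min over 48°C-58°C, and extracted in PBS with 0.5% NP-40 at 4°C. Values, from duplicates, describe thermal stability against control samples on a log2 fold-change scale.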

Amino acid sequences for entries named in this document (tags omitted). A change or cut given only in a name is not applied to a line headed by its entry.
UniProt P11171, whole entry, looked up: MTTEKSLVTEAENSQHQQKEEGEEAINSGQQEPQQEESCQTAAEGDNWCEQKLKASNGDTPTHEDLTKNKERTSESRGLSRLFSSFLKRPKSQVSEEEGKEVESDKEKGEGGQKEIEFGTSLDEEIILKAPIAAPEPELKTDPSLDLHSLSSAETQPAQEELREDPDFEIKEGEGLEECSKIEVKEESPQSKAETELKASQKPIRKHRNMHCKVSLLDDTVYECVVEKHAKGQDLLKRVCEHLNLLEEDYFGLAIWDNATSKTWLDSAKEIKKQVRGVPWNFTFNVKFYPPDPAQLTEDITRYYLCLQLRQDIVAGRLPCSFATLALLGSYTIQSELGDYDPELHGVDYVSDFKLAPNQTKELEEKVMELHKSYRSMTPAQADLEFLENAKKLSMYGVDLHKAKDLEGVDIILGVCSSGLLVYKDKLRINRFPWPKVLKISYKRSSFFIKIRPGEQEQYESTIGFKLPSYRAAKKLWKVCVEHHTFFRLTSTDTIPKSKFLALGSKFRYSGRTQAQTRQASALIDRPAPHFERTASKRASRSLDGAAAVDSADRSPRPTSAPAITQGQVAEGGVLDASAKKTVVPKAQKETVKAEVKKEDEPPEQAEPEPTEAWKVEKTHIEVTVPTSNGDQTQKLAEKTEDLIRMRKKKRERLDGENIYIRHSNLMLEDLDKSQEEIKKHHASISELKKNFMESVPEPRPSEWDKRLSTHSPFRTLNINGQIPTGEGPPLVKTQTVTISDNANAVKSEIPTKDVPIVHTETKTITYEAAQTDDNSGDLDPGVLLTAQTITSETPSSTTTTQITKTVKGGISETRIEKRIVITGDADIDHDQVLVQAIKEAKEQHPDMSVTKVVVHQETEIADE
UniProt P19419: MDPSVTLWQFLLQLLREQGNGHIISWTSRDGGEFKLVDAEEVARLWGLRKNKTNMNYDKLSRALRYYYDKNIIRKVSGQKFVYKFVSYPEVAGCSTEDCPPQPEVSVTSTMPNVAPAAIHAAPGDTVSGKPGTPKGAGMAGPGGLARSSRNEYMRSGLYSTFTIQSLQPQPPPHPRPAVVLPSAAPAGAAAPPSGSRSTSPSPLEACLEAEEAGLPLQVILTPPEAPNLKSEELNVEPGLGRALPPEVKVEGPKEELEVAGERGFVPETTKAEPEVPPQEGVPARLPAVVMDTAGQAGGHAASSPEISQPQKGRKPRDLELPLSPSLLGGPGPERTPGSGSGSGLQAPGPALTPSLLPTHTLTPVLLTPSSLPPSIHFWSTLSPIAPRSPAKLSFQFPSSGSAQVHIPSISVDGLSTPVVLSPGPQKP
UniProt Q8N5X7: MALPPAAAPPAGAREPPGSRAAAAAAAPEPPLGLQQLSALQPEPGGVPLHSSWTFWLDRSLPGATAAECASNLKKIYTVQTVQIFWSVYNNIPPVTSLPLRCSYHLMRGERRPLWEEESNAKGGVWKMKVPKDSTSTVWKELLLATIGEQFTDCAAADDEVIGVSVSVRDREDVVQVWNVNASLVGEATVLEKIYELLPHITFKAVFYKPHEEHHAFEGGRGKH
UniProt Q14156: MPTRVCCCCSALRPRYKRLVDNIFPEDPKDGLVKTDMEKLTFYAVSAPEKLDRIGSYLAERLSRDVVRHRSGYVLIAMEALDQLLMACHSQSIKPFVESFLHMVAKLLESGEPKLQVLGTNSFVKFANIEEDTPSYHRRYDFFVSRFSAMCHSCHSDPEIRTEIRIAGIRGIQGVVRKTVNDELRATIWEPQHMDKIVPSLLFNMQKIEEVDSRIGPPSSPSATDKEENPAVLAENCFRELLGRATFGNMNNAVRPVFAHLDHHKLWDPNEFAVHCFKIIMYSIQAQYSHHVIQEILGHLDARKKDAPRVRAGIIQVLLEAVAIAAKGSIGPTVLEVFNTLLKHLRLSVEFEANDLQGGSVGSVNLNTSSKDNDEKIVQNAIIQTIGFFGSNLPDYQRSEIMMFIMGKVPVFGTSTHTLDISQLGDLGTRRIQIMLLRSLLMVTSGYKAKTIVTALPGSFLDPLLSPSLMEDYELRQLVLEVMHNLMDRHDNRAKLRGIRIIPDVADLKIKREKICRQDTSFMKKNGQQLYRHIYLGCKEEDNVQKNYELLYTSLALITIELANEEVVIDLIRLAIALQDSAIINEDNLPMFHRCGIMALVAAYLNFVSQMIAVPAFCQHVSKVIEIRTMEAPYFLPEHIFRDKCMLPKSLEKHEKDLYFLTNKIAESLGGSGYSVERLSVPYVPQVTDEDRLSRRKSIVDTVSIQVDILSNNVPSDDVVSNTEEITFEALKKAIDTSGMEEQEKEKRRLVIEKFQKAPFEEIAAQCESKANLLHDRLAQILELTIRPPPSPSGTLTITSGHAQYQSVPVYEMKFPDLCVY
UniProt Q9Y6B2: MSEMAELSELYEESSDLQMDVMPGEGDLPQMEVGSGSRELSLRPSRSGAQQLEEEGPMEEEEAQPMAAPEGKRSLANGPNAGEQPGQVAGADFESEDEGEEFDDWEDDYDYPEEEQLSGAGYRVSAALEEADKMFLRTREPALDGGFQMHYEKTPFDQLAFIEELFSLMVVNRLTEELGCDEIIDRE
UniProt A1L3X0: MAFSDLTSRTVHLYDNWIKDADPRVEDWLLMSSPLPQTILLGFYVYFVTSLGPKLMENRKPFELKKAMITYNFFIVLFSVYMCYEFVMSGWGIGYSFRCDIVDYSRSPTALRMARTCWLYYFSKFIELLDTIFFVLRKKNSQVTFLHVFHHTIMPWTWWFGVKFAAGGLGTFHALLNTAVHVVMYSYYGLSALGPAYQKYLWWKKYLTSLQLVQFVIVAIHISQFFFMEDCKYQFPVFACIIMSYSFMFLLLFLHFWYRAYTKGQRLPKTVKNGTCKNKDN
UniProt O00418: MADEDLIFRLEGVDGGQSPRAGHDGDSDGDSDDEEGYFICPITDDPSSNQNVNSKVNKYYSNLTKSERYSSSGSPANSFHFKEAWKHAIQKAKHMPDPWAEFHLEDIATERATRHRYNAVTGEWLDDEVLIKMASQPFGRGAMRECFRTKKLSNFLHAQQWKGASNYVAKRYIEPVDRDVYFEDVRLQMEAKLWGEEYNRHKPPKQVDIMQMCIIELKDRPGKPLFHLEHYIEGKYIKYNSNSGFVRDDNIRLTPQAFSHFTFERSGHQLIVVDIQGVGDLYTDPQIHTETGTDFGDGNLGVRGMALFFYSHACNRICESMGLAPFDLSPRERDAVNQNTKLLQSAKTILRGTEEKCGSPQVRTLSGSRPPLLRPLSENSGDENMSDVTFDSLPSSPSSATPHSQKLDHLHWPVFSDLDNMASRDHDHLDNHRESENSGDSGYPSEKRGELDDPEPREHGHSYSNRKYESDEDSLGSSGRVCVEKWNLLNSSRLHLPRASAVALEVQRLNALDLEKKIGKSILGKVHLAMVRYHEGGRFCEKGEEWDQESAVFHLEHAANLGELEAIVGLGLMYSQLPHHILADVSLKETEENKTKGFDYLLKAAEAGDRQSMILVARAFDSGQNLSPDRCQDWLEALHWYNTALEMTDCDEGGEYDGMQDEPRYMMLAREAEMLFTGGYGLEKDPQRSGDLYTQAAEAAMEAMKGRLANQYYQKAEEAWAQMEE
UniProt Q9UHF1: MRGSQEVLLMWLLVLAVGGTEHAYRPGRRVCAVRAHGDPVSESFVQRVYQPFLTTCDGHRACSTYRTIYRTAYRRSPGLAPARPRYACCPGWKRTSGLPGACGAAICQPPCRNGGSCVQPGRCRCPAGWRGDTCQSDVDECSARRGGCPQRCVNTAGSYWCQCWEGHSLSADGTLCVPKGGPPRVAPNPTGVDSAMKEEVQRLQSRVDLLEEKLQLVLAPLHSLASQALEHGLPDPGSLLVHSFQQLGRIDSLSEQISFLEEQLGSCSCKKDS
UniProt Q9Y3B6: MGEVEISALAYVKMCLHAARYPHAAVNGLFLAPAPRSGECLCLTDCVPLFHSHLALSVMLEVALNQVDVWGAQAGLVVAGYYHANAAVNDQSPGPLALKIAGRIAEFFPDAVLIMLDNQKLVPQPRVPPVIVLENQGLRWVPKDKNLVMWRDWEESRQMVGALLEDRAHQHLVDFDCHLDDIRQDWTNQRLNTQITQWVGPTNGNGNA
UniProt Q5JPI9: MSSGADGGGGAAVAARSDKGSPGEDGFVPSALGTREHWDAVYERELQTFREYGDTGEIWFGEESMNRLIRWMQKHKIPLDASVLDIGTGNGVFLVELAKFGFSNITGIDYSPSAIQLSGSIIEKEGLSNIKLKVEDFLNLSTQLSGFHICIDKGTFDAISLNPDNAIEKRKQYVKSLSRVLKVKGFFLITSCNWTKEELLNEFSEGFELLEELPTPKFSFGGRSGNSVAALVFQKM
UniProt Q14241: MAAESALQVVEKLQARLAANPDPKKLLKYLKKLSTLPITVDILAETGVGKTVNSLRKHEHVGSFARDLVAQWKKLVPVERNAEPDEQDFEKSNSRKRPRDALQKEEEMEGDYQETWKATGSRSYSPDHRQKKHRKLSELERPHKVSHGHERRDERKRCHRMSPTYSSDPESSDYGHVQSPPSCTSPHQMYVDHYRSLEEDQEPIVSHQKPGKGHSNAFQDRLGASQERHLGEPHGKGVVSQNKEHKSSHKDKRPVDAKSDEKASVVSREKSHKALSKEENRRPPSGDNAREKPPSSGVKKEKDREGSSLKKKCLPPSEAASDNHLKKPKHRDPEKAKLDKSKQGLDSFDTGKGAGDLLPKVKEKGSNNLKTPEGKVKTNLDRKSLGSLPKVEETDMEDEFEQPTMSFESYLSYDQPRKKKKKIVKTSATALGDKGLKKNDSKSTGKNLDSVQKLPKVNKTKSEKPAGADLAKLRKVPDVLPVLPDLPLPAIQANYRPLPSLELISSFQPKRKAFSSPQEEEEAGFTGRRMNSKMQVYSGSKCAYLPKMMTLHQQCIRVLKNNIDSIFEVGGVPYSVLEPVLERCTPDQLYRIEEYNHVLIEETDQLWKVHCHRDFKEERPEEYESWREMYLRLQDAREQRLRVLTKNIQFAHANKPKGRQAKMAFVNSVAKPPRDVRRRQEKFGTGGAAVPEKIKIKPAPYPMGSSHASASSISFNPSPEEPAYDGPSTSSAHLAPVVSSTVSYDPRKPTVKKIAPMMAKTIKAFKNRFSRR
UniProt P29692: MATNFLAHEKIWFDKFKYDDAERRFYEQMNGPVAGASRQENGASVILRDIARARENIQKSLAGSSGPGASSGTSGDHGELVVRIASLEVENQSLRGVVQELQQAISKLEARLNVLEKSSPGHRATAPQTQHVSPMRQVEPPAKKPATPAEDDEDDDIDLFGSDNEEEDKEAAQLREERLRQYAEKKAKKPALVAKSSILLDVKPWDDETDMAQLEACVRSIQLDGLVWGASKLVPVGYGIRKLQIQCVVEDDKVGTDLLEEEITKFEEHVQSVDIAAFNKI
UniProt Q8NDI1: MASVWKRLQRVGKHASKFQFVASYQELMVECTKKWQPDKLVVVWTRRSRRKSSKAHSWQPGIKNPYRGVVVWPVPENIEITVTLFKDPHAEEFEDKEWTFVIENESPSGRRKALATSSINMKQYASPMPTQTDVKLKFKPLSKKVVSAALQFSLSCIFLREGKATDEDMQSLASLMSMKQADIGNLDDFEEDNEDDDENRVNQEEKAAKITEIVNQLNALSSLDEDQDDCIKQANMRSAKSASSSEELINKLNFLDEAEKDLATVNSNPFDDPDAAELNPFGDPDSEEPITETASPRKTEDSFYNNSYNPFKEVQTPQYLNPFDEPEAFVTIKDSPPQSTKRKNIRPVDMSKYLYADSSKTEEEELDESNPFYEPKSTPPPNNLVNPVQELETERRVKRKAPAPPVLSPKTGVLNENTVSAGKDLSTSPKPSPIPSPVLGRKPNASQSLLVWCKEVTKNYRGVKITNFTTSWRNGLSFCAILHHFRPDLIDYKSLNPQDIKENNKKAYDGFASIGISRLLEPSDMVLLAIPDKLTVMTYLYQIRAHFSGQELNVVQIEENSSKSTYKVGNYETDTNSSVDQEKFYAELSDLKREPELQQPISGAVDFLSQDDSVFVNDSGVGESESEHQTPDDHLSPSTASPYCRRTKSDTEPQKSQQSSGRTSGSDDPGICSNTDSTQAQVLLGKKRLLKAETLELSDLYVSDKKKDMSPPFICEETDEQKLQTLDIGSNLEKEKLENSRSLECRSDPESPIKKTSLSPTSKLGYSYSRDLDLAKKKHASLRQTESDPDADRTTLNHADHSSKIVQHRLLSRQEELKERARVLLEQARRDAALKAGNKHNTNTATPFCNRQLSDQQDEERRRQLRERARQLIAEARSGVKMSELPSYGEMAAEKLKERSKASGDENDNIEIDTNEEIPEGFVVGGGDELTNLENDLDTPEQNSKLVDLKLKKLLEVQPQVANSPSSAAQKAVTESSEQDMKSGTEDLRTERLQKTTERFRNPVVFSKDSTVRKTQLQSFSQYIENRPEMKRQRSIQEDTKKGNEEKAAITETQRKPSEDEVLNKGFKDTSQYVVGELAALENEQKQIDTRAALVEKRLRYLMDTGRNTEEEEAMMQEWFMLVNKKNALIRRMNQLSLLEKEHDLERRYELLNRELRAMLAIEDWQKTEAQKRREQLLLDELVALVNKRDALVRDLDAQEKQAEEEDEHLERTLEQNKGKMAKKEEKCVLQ

alisertib = compound: COc1cc(Nc2ncc3c(n2)-c2ccc(Cl)cc2C(c2c(F)cccc2OC)=NC3)ccc1C(=O)O [alisertib]
In short: as §1

[1] = compound: COc1cc2nc(-c3cc(F)ccc3O)nc(N[C@@H]3CNC[C@H]3C(C)(C)O)c2cc1OC
In short: as §1

[2] = compound: COc1cccc2cc(-c3nc([C@H]4CC[C@H](C(=O)O)CC4)n4ncnc(N)c34)[nH]c12
In short: as §1

lapatinib = compound: CS(=O)(=O)CCNCc1ccc(-c2ccc3ncnc(Nc4ccc(OCc5cccc(F)c5)c(Cl)c4)c3c2)o1 [lapatinib]
In short: as §1

pictilisib = compound: CS(=O)(=O)N1CCN(Cc2cc3nc(-c4cccc5[nH]ncc45)nc(N4CCOCC4)c3s2)CC1 [pictilisib]
In short: as §1

alvocidib = compound: CN1CC[C@H](c2c(O)cc(O)c3c(=O)cc(-c4ccccc4Cl)oc23)[C@H](O)C1 [alvocidib]
In short: as §1

rucaparib = compound: CNCc1ccc(-c2[nH]c3cc(F)cc4c3c2CCNC4=O)cc1 [rucaparib]
In short: as §1

encorafenib = compound: COC(=O)N[C@@H](C)CNc1nccc(-c2cn(C(C)C)nc2-c2cc(Cl)cc(NS(C)(=O)=O)c2F)n1 [encorafenib]
In short: as §1

[3] = compound: COC1=CC=C(C=C1)CN2C=CC3=C2C=C(C=C3)C(=O)NO
In short: as §1

zotarolimus = compound: CO[C@H]1C[C@@H]2CC[C@@H](C)[C@@](O)(O2)C(=O)C(=O)N2CCCC[C@H]2C(=O)O[C@H]([C@H](C)C[C@@H]2CC[C@H](n3cnnn3)[C@H](OC)C2)CC(=O)[C@H](C)/C=C(\C)[C@@H](O)[C@@H](OC)C(=O)[C@H](C)C[C@H](C)/C=C/C=C/C=C/1C [zotarolimus]
In short: as §1

gefitinib = compound: COc1cc2ncnc(Nc3ccc(F)c(Cl)c3)c2cc1OCCCN1CCOCC1 [gefitinib]
In short: as §1

saracatinib = compound: CN1CCN(CCOc2cc(OC3CCOCC3)c3c(Nc4c(Cl)ccc5c4OCO5)ncnc3c2)CC1 [saracatinib]
In short: as §1

[4] = compound: CNc1nc(-c2ccc3c(N)n[nH]c3c2)cc(N2C[C@@H](C(=O)NC3CCCCC3)CC[C@H]2C)n1
In short: as §1

sotrastaurin = compound: CN1CCN(c2nc(C3=C(c4c[nH]c5ccccc45)C(=O)NC3=O)c3ccccc3n2)CC1 [sotrastaurin]
In short: as §1

filanesib = compound: CON(C)C(=O)N1N=C(c2cc(F)ccc2F)S[C@@]1(CCCN)c1ccccc1 [filanesib]
In short: as §1

[5] = compound: CNC(=O)C1=CC=CC=C1NC2=NC(=NC=C2Cl)NC3=C(C=C(C=C3)N4CCOCC4)OC
In short: as §1

idasanutlin = compound: COc1cc(C(=O)O)ccc1NC(=O)[C@@H]1N[C@@H](CC(C)(C)C)[C@](C#N)(c2ccc(Cl)cc2F)[C@H]1c1cccc(Cl)c1F [idasanutlin]
In short: as §1

defactinib = compound: CNC(=O)c1ccc(Nc2ncc(C(F)(F)F)c(NCc3nccnc3N(C)S(C)(=O)=O)n2)cc1 [defactinib]
In short: as §1

[6] = compound: COC(=O)[C@H](CCSC)NC(=O)C1=C(C=C(C=C1)NC[C@H](CS)N)C2=CC=CC=C2
In short: as §1

Measured: log2 fold change

EPB41 isoform 4 (UniProt P11171)
inactive: Tubastatin A 0.099 | alisertib 0.013 | [1] -0.032 | [2] -0.051 | lapatinib 0.173 | pictilisib -0.018

ELAVL4 (UniProt P26378)
inactive: alvocidib 0.13 | Tubastatin A 0.049 | rucaparib 0.555 | encorafenib 0.172 | [3] -0.016 | zotarolimus 0.04 | gefitinib -0.044 | pictilisib -0.038

EP400P1 isoform 6 (UniProt Q6ZTU2)
inactive: saracatinib -0.018 | Tubastatin A -0.013 | [4] 0.125

ENO2 (UniProt U3KQQ1)
inactive: sotrastaurin 0.035 | [3] -0.137 | filanesib 0.189 | [1] 0.121 | lapatinib -0.311 | pictilisib 0.404

EIF4H isoform 2 (UniProt Q15056)
inactive: [5] 0.081 | idasanutlin 0.355 | pictilisib 0.041

ELK1 (UniProt P19419)
inactive: [3] 0.16 | pictilisib -0.226

ELMO2 (UniProt Q96JJ3)
inactive: saracatinib -0.129 | [4] -0.018

ENKD1 (UniProt Q9H0I2)
inactive: Tubastatin A 0.175 | [5] -0.231 | defactinib 0.108 | rucaparib 0.114 | encorafenib 0.03 | [6] -0.143 | [1] 0.057 | lapatinib -0.02 | pictilisib -0.016

ENTPD4 (UniProt Q9Y227)
inactive: sotrastaurin 0.033 | Tubastatin A -0.117 | [5] 0.116 | rucaparib 0.115 | encorafenib 0 | [3] 0.031 | filanesib 0.029 | pictilisib -0.019

EP400 (UniProt Q96L91)
inactive: sotrastaurin -0.087 | alvocidib 0.179 | filanesib -0.021 | zotarolimus -0.118 | alisertib 0 | [2] 0.269 | pictilisib 0.032

EIF4E3 (UniProt Q8N5X7)
inactive: [5] -0.003 | rucaparib -0.198 | encorafenib -0.109 | [3] 0.009

EFCAB2 (UniProt Q5VUJ9)
inactive: [5] -0.026 | rucaparib 0.027 | encorafenib -0.122 | idasanutlin 0.14 | pictilisib 0.061

EIF2AK3 (UniProt Q9NZJ5)
inactive: saracatinib -0.019 | Tubastatin A 0.039 | [5] 0.183 | rucaparib -0.125 | [4] 0.082 | encorafenib -0.216 | [3] 0.135 | zotarolimus -0.06 | idasanutlin -0.039 | alisertib -0.141 | [1] 0.201 | gefitinib -0.161 | [2] 0.078 | lapatinib 0.146 | pictilisib -0.233

EFR3A (UniProt Q14156)
inactive: sotrastaurin -0.285 | defactinib 0.012 | [6] 0 | filanesib 0.062 | alisertib -0.036 | gefitinib 0.104 | [2] -0.022

EPB41, A0A2R8Y783
inactive: saracatinib 0.152 | [4] 0.008 | [3] -0.195 | gefitinib 0.079

ENAH (UniProt Q8N8S7)
inactive: defactinib 0.122 | [6] 0.052 | pictilisib 0.114

2 neighbouring records from above:
EIF2AK3 (UniProt Q9NZJ5)
inactive: saracatinib -0.019 | Tubastatin A 0.039 | [5] 0.183 | rucaparib -0.125 | [4] 0.082 | encorafenib -0.216 | [3] 0.135 | zotarolimus -0.06 | idasanutlin -0.039 | alisertib -0.141 | [1] 0.201 | gefitinib -0.161 | [2] 0.078 | lapatinib 0.146 | pictilisib -0.233

EFR3A (UniProt Q14156)
inactive: sotrastaurin -0.285 | defactinib 0.012 | [6] 0 | filanesib 0.062 | alisertib -0.036 | gefitinib 0.104 | [2] -0.022

The list goes on:

EID1 (UniProt Q9Y6B2)
inactive: sotrastaurin -0.049 | Tubastatin A 0.599 | [5] -0.111 | filanesib 0.119 | alisertib 0.024 | [1] 0.015 | gefitinib -0.031 | [2] -0.239 | lapatinib -0.097 | pictilisib 0.3

ELOVL7 (UniProt A1L3X0)
inactive: saracatinib -0.018 | Tubastatin A -0.002 | [5] -0.112 | [4] -0.093 | zotarolimus 0.012 | idasanutlin -0.118

EEF2K (UniProt O00418)
inactive: [5] 0.064 | defactinib -0.021 | rucaparib 0.1 | encorafenib -0.036 | [6] -0.266 | zotarolimus 0.021 | alisertib 0.031 | [1] -0.062 | lapatinib -0.017 | pictilisib -0.014
active: [2] -0.896

EGFL7 (UniProt Q9UHF1)
inactive: sotrastaurin 0.042 | filanesib 0.069 | idasanutlin 0.17 | pictilisib 0.033

EGR1 (UniProt P18146)
inactive: sotrastaurin -0.481 | Tubastatin A 0.129 | [5] -0.147 | [6] 0.041 | filanesib 0.463 | zotarolimus 0.125 | idasanutlin 0.164 | alisertib -0.54 | [1] -0.24 | gefitinib -0.183 | [2] 0.079 | lapatinib 0.067 | pictilisib -0.362
active: defactinib -0.841

EMC9 (UniProt Q9Y3B6)
inactive: gefitinib 0.062

ENTR1 (UniProt Q96C92)
inactive: saracatinib -0.131 | [5] -0.03 | defactinib 0.022 | [4] -0.039 | [1] -0.065 | lapatinib 0.075
active: [6] -0.486

ELP5 isoform 2 (UniProt Q8TE02)
inactive: [5] -0.265 | [1] -0.105 | lapatinib 0.245

EEF1AKMT2 (UniProt Q5JPI9)
inactive: sotrastaurin 0.194 | [5] -0.021 | rucaparib 0.009 | encorafenib 0.08 | filanesib 0.089 | alisertib -0.152 | [2] 0.033

EIF4G1 (UniProt Q04637)
inactive: saracatinib -0.112 | Tubastatin A 0.006 | defactinib -0.08 | [4] -0.017 | [6] 0.014 | zotarolimus -0.118 | idasanutlin 0.071 | pictilisib -0.307

ELOA (UniProt Q14241)
inactive: rucaparib -0.057 | encorafenib -0.153 | alisertib -0.001 | [2] -0.214 | pictilisib 0.036

ENTPD3 (UniProt O75355)
inactive: [3] 0.779 | [1] -0.021 | lapatinib 0.073

EIF1B (UniProt O60739)
inactive: sotrastaurin 0.025 | [5] 0.161 | rucaparib -0.072 | encorafenib 0.172 | [3] 0.19 | filanesib -0.166 | alisertib 0.221 | [2] -0.677

ENO3 (UniProt K7EKN2)
inactive: saracatinib 0.116 | [4] 0.279

EEF1D isoform 3 (UniProt P29692)
inactive: Tubastatin A 0.147 | [5] -0.03 | alisertib -0.067 | [2] -0.105

EHBP1 (UniProt Q8NDI1)
inactive: Tubastatin A 0.045 | rucaparib 0.135 | encorafenib -0.058 | zotarolimus -0.02 | idasanutlin 0.031 | alisertib 0.025 | [2] 0.086 | pictilisib 0.057

— the supplement of paper PMC10849652
